From PubChem BioAssay AID1487 (National Center for Advancing Translational Sciences (NCATS), 2009)
“And” between values parts separate entries of the source, which are not always exact repeats. Equal entries are not always repeated. The whole screen tested about 200,000 compounds, of which about 25 (0.01%) were called active. The inconclusive results got no clear call from the source; some entries with a clear call stand among them for comparison. The call rests on the fitted dose curve; in most records, active means well fitted inhibition curve with a large enough effect in the signal ratio, with a control signal flat (not every such curve was filed as active); inconclusive means small, poorly fitted or top-dose-only effect, or effect the other way, or a change in a side signal; inactive means flat fitted curve, though single readings scatter; the % refers to the signal ratio. Potencies beside an inconclusive call are fits to weak or partial responses and may not hold up.

Assay: qHTS Assay for Modulators of Lamin A Splicing
Conditions: HeLa LMNA splicing GFP/RFP minigene ratio, 48 h; ratio change, negative = inhibition: at 46.1 µM (top of the series) unless noted
Summary of the method: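 Read-out is the ratio of GFP to DsRed2 object intensity, acquired by 488 nm laser-scanning cytometry on HeLa lamin A-EGFP minigene reporter cells. Compound incubation 48 hrs at 37 °C in Opti-MEM with 2% FBS; DMSO 0.5% final.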
On the % scale 0 is the no-effect control and ±100 the full control effect; potency means the concentration at half of the fitted maximal effect.

Structure (SMILES) | ratio change, negative = inhibition | Potency
CNS(=O)(=O)c1ccc(NC(=O)C2c3ccccc3Oc3ccccc32)cc1 | inconclusive: 4.41% | –
O=C(CNC(=O)c1ccccc1)OCc1nc2ccccc2s1 | inactive: -5.69% | –
COc1ccc(N2C(=O)CC(Sc3nccc(C)n3)C2=O)cc1 (stereo unspecified) | inactive: 5.48% | –
Cc1cccc(N2CCN(S(=O)(=O)c3cc(C(=O)Nc4ccc(Oc5ccccc5)cc4)ccc3F)CC2C)c1 (stereo unspecified) | inconclusive: -25.6% [at 46 µM] | –
COc1ccccc1C(c1c(O)cc(C)n(Cc2ccco2)c1=O)N1CCCCC1 (stereo unspecified) | inconclusive: -9.73% [at 46 µM] | –
CC(/C=C/c1ccc(N(C)C)cc1)=N/N=C1/NC(=O)CC(C(=O)Nc2ccc(Cl)cc2)S1 (stereo unspecified) | inactive: -17.3% | –
COc1ccc(OC)c(C(c2nnnn2CC2CCCO2)N2CCN(C)CC2)c1 (stereo unspecified) | inactive: 8.36% | –
CCCC(C(=O)NC1CCCC1)N(Cc1ccc2c(c1)OCO2)C(=O)c1snc(C(N)=O)c1N (stereo unspecified) | inactive: -0.831% | –
CCN(CC)c1ccc2cc(-c3nnc(Nc4ccc(C)cc4)s3)c(=O)oc2c1 | – | inconclusive: 0.631 µM [activator, full curve]
Cc1cc(C)c(S(=O)(=O)NCc2ccc3c(c2)CCN3C(=O)c2ccccc2)c(C)c1 | inconclusive: -13.1% [at 46 µM] | –
COc1ccc(C(=O)Nc2ccc(S(=O)(=O)Nc3cc(C)nc(C)n3)cc2)cc1OC | inconclusive: -13.5% [at 46 µM] | –
COc1cc(/C=N/N=C(/N)c2nonc2N)cc(Br)c1OCc1cccc(C)c1 | inactive: 1.49% | –
COc1ccc(-c2csc(N)n2)cc1F | inactive: 7.47% [at 46 µM] | –
Clc1cccc(CN2COc3c(cc(Cl)c4cccnc34)C2)c1 | – | inconclusive: 35.5 µM [falling, single point]
Cc1ccc(C)n1-c1ccc(N2CCOCC2)cc1 | inactive: -0.0253% | –
COc1ccc(OC)c(C2C(C(=O)Nc3ccc(C)cc3C)=C(C)Nc3c(C(=O)Nc4ccc(F)cc4)cnn32)c1 (stereo unspecified) | inactive: 12.4% [at 46 µM] | –
COc1ccc(-c2cc(=O)n(CCC#N)[nH]2)cc1 | inactive: -11.3% | –
CC(C)(C)NC(=O)[C@@H]1C[C@@H]2CCCC[C@@H]2CN1C[C@@H](O)[C@H](Cc1ccccc1)NC(=O)[C@H](CC(N)=O)NC(=O)c1ccc2ccccc2n1 | – | inconclusive: 12.6 µM [fluorescent, partial curve, poor fit]
O=C(CN1CCN(S(=O)(=O)c2ccc3ccccc3c2)CC1)N1CCc2ccccc2C1 | inconclusive: -30.1% | –
CC1OC(n2cc(F)c(=O)[nH]c2=O)C(O)C1O (stereo unspecified) | inconclusive: 16.5% | –
COc1ccc(-n2nc(C(=O)NCC(=O)Nc3cccc(NC(C)=O)c3)c3ccccc3c2=O)cc1 | inconclusive: -15.5% [at 9.22 µM] | –

Structure (SMILES) | ratio change, negative = inhibition | Potency
COc1cc(C2C(C(=O)/C=C/c3ccccc3)=C(O)C(=O)N2c2ccccn2)ccc1O (stereo unspecified) | – | inconclusive: 35.5 µM [inhibitor, single point]
COc1ccc2nc(Nc3nc(CSc4ccc(C)cc4)cc(=O)[nH]3)nc(C)c2c1 | inconclusive: -20.4% [at 46 µM] | –
O=C(COC(=O)c1c[nH]c(=O)[nH]c1=O)Nc1ccccc1 | inconclusive: 0.0618% [at 46 µM] | –
CCN(CC)C(=O)c1cc2cc([N+](=O)[O-])ccc2s1 | inactive: 3.07% | –
COc1ccc(F)cc1S(=O)(=O)NCC(c1ccco1)S(=O)(=O)c1cccs1 (stereo unspecified) | – | inconclusive: 15.8 µM [inhibitor, single point]
CNCCCC1c2ccccc2C=Cc2ccccc21 | inconclusive: -26.8% and inconclusive: -4.98% | –
COC(=O)c1ccccc1NC(=O)c1ccccc1OC | inconclusive: 23.9% | –
COc1cccc(-c2cncnc2NCc2ccc(OC)cc2OC)c1 | – | inconclusive: 14.1 µM [inhibitor, partial curve, poor fit]
Cc1ccsc1/C=N\NC(=O)c1ccc2c(c1)OCO2 | inconclusive: -3.91% | –
O=C(Cc1ccccc1)Nc1scc(-c2ccccc2)c1C(=O)N1CCOCC1 | inactive: -3.61% | –
O=C1Nc2ccccc2C(O)(C(=O)NCc2ccco2)N1c1ccc(Cl)c(Cl)c1 (stereo unspecified) | inactive: -3.81% | –
O=C(O)/C=C/C(=O)NNC(=O)c1cccc(Br)c1 | inactive: -12.1% | –
CCc1ccc(C(=O)c2ccccc2C(=O)O)s1 | inactive: -2.83% | –
CCc1c(C)nc(SCC(=O)N2C(C)CCCC2C)[nH]c1=O (stereo unspecified) | inconclusive: -26% [at 46 µM] | –
CCN1C(=O)c2cccc3c(S(=O)(=O)NCc4ccco4)ccc1c23 | inactive: -27.2% | –
Cc1ccccc1/C=N\NC(=O)c1ccccc1-n1cccc1 | inconclusive: -3.68% [at 9.22 µM] | –
Cc1cc(C)nc(-n2nc(C)cc2NC(=O)CN2CCc3ccccc3C2)n1 | inconclusive: -6.41% | –
O=C(CCc1ccc(O)c(O)c1)NNC(=S)Nc1ccc(Br)cc1Cl | inconclusive: 4.64% [at 46 µM] | –
CCOC(=O)c1cnc2ccc(OC)cc2c1NCCc1ccc(OC)c(OC)c1 | inconclusive: -33.5% | –
Cc1cnc(CNc2nc(-c3ccc(C(=O)N(C)C)cc3)nc3ccccc23)cn1 | inactive: -4.23% | –
